Test results as given in PMC11706607.
Results are given in words; binding and its absence hold for the method and conditions named. Binding seen in cells or lysates may run through a third protein. Here binding means that the protein was enriched with, or labelled near, the bait; the list need not be complete.

The chains behind the UniProt entries cited, without tags or fusion partners. Where a name states a change or a piece, a line headed by the entry shows the natural chain unless it says otherwise.
UniProt Q9H1Y0: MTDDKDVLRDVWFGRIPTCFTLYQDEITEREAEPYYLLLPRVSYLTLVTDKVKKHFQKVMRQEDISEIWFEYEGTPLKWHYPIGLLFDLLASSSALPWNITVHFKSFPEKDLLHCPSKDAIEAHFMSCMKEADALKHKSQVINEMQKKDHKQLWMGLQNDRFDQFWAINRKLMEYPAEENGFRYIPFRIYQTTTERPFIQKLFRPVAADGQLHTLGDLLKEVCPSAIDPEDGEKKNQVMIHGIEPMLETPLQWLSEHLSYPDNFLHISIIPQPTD

Tests used:
APEX2-ATG5-K130R = APEX2-ATG5-K130R (UniProt Q9H1Y0); experiment: proximity labelling; APEX2 proximity biotinylation in FlpIn-HeLa cells, 500 µM biotin-phenol, with or without 2 mM LLOMe for 30 min, 1 min 1 mM H2O2; streptavidin beads, LC-MS/MS in DIA mode
APEX2-ATG5-WT = APEX2-ATG5-WT (UniProt Q9H1Y0); experiment: as above

binding (APEX2-ATG5-K130R): binds
binding (APEX2-ATG5-WT): binds
Substance: VPS26A (from UniProt O75436 1-327)
